In PubChem BioAssay AID493014 (National Center for Advancing Translational Sciences (NCATS), 2011):
This is one part of the list. These are further read-outs of the screen, such as a control signal, another cell line or another target. No call is given for them. The list favours compounds with an active or inconclusive main result. The note in brackets gives the kind of curve behind each potency; many fits are weak.

Assay: qHTS Assay to Find Inhibitors of Chronic Active B-Cell Receptor Signaling
Conditions: ABC-DLBCL IkBa-CBG/CBR reporter, luminescence ratio (green luciferase fused to IkBa over red control in TMD8 lymphoma cells), 4 h
Method in brief: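 TMD8 human ABC-DLBCL cells with doxycycline-inducible IκBα–green luciferase fusion and unfused red luciferase, in 0.5% FBS medium; compounds up to 46 uM, 4 h at 37C. Green/red luminescence ratio, filter-overlap corrected, fitted to concentration-response curves.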

[1] = measured here: CBR red luminescence, cell number
[2] = measured here: IkBa-CBG green luminescence

SMILES	AC50 [1]	AC50 [2]
CCOc1cccc2sc(N(CCCN(C)C)C(=O)Cc3ccccc3)nc12	35.5 µM [falling, single point]	–
Cc1ccc(CN2CC(C(=O)NCCCSc3ccccc3)CC2=O)cc1 (configuration not stated)	2.82 µM [rising, single point]	–
COC(=O)c1cc2n(n1)CCN(Cc1ccc(C)cc1)C2=O	29.1 µM [rising, single point]	–
O=C(COc1ccc(S(=O)(=O)Nc2cccc(C(F)(F)F)c2)cc1)N1CCOCC1	3.55 µM [falling, full curve, poor fit]	–
CCCn1nnnc1NC(=O)c1ccc2ccccc2c1	25.9 µM [rising, single point]	20.6 µM [falling, single point]
CCN(CCCNC(=O)CN1N=C(c2ccc(C)cc2)CCC1=O)c1ccccc1	35.5 µM [falling, single point]	–
O=C(CNC(=O)c1ccco1)NCC(c1ccco1)N1CCCCC1 (configuration not stated)	0.103 µM [rising, full curve, poor fit]	–
CC(C)c1ccc(NC(=O)C2C3C=CC4(O3)C2C(=O)N(CCN2CCOCC2)C4C(=O)NC2CCCCC2)cc1 (configuration not stated)	11.2 µM [rising, partial curve, poor fit]	–
COc1ccc(C(C)=O)c(OC(=O)c2ccc(OC)c(OC)c2)c1	23.1 µM [rising, single point]	–
O=C(COC(=O)c1ccco1)Nc1ccc2[nH]c(=O)[nH]c2c1	29.1 µM [rising, single point]	–
CC1CC(=O)c2cnc(Nc3cccc(C(F)(F)F)c3)nc2C1 (configuration not stated)	0.251 µM [rising, full curve, poor fit]	–
COc1cccc(NC(=O)COC(=O)c2ccc(C)c(S(=O)(=O)N3CCCCC3)c2)c1	–	18.4 µM [falling, partial curve, poor fit]
CN1CCCC(CC2c3ccccc3Sc3ccccc32)C1 (configuration not stated)	11.6 µM [falling, partial curve, poor fit]	–
OC1(C#CCN2CCCC2)c2ccccc2-c2ccccc21	0.0891 µM [falling, full curve, poor fit]	–
Brc1ccc(C2=CC(c3ccco3)n3nnnc3N2)cc1 (configuration not stated)	11.2 µM [rising, partial curve, poor fit]	–
O=C(O)c1ccccc1NS(=O)(=O)c1ccc(NN=Cc2cccc(Cl)c2)c([N+](=O)[O-])c1	23.1 µM [rising, single point]	–
CCCOc1ccc(Cn2ccnc2)cc1[N+](=O)[O-]	–	25.9 µM [falling, partial curve, poor fit]
COc1ccc(Nc2cc(C)nc(-n3nc(C)cc3C)n2)cc1	23.1 µM [rising, single point]	11.6 µM [falling, partial curve]
CCOC(=O)c1c(C)[nH]c(C(=O)OCc2c(C)noc2C)c1C	35.5 µM [falling, single point]	–
CCCCC(=O)Nc1nnc(-c2ccc(OC)cc2)s1	1.03 µM [rising, full curve, poor fit]	–

SMILES	AC50 [1]	AC50 [2]
Cc1ccccc1CN1C(=O)c2ccccc2Sc2ccc(C(=O)NCCCN3CCOCC3)cc21	22.4 µM [falling, partial curve, poor fit]	–
CC(C)(CO)CNC(=O)CCc1nnc(CCCc2ccccc2)o1	3.98 µM [rising, partial curve, poor fit]	–
COc1cc(CC(=O)Nc2nc(-c3ccccc3)c(C(C)=O)s2)cc(OC)c1OC	12.6 µM [falling, partial curve]	–
COc1ccc(-c2cc(C(F)(F)F)nc(N)n2)cc1	8.91 µM [rising, partial curve]	–
Cc1ccc2cc(C#N)c(SCC(=O)NNC(=O)Cc3ccccc3)nc2c1	8.2 µM [falling, partial curve]	–
COC(=O)c1[nH]c2cccc(OC)c2c1NC(=O)CN1CCN(c2cccc(OC)c2)C(C)C1 (configuration not stated)	2.59 µM [rising, full curve]	–
CCOc1ccc(NC(=O)CSc2cn[nH]n2)cc1	16.4 µM [falling, partial curve]	–
COc1ccc(Cn2nnc(C(=O)Nc3ccc(F)cc3)c2N)cc1	5.01 µM [falling, partial curve, poor fit]	–
Cc1ccc(S(=O)(=O)N(C)c2ccccc2)cc1	0.13 µM [rising, full curve, poor fit]	–
Cc1csc(N/N=C/c2c(F)cccc2Cl)n1	0.501 µM [rising, full curve, poor fit]	–
CCN1CCN(c2ccc(S(=O)(=O)N3CCCCC3)cc2NC(=O)c2ccc([N+](=O)[O-])o2)CC1	20.6 µM [falling, single point]	–
COc1ccc(CCNC(=O)c2ccc(OCc3c(C)noc3C)cc2)cc1OC	0.58 µM [rising, full curve, poor fit]	–
Cc1cc(C(=O)CN2C(=O)NC(Cc3c[nH]c4ccccc34)C2=O)c(C)n1C (configuration not stated)	12.6 µM [rising, partial curve]	–
CCN(CC(=O)NCc1cccs1)C(=O)c1ccc([N+](=O)[O-])o1	3.26 µM [rising, full curve]	–
COc1ccc(C2Nc3ccccc3C(=O)N2Cc2ccccc2)cc1COc1ccc(Cl)cc1Cl (configuration not stated)	8.2 µM [rising, partial curve, poor fit]	–
CCOC(=O)c1c(C)[nH]c(C(=O)OCC(=O)NC(C)C)c1C	6.51 µM [falling, full curve, poor fit]	–
c1ccn(-c2ccc(N3CCOCC3)cc2)c1	0.282 µM [rising, full curve, poor fit]	–
CS(=O)(=O)c1ccc2nc(NC(=O)c3ccc(N4C(=O)CCC4=O)cc3)sc2c1	8.91 µM [rising, partial curve, poor fit]	–
COc1c(OC(C)=O)ccc(/C=C/c2ccc3cccc(OCc4ccccc4)c3n2)c1[N+](=O)[O-]	16.4 µM [rising, single point]	–
Cc1[nH][nH]c(=O)c1C(c1ccc2c(c1)OCO2)c1c(C)[nH][nH]c1=O	10 µM [falling, partial curve]	–

Sorted by SMILES length (low to high): part of the list above.
SMILES	AC50 [1]	AC50 [2]
CCCn1nnnc1NC(=O)c1ccc2ccccc2c1	25.9 µM [rising, single point]	20.6 µM [falling, single point]
CC(C)(CO)CNC(=O)CCc1nnc(CCCc2ccccc2)o1	3.98 µM [rising, partial curve, poor fit]	–
O=C(COC(=O)c1ccco1)Nc1ccc2[nH]c(=O)[nH]c2c1	29.1 µM [rising, single point]	–
COc1cc(CC(=O)Nc2nc(-c3ccccc3)c(C(C)=O)s2)cc(OC)c1OC	12.6 µM [falling, partial curve]	–
Cc1[nH][nH]c(=O)c1C(c1ccc2c(c1)OCO2)c1c(C)[nH][nH]c1=O	10 µM [falling, partial curve]	–
COc1cccc(NC(=O)COC(=O)c2ccc(C)c(S(=O)(=O)N3CCCCC3)c2)c1	–	18.4 µM [falling, partial curve, poor fit]
O=C(O)c1ccccc1NS(=O)(=O)c1ccc(NN=Cc2cccc(Cl)c2)c([N+](=O)[O-])c1	23.1 µM [rising, single point]	–
